Data source: PubChem BioAssay AID1259308 (NCATS, 2017)
The deposit covers about 59,000 reagents; below is a random part of them. About 1,510 of all reagents (2.6%) count as active. 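Calls use total luciferase alone and ignore viability, so some active siRNAs may act by altering cell number.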 The numbers tell different reagents against one gene apart. Not all columns of the deposit are shown.

Purpose: 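Knock-downs that increase output of a recombinant reporter protein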 (primary screen)
Cell system: human HEK293 embryonic kidney cells stably expressing firefly luciferase (HEK-CMV-Luc2-Hygro)
Reagent: single siRNA against human genes, 0.8 pmol siRNA per well
Timing: 72 h
Measured: 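Reporter luminescence and viable-cell signal on separate replicate plates, given as percent of non-targeting control and median/MAD z-scores, plus per-cell luciferase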
Scale: total luciferase, z-score and total luciferase, % of control: higher = more reporter protein produced
Hit rule: 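An siRNA counts as active if its total luciferase robust z-score exceeds 3; genes with two or more such siRNAs out of three were retested with fresh siRNAs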
Calls: active = raised luciferase; inactive = no rise

{"Gene": "PPT1 (GeneID 5538)", "reagent no.": 1, "total luciferase, z-score": -1.89, "total luciferase, % of control": 44.4, "Outcome": "inactive"}
{"Gene": "PPT1 (GeneID 5538)", "reagent no.": 2, "total luciferase, z-score": -1.27, "total luciferase, % of control": 56.7, "Outcome": "inactive"}
{"Gene": "PPT1 (GeneID 5538)", "reagent no.": 3, "total luciferase, z-score": 1.17, "total luciferase, % of control": 105, "Outcome": "inactive"}
{"Gene": "ESYT3 (GeneID 83850)", "reagent no.": 1, "total luciferase, z-score": 1.82, "total luciferase, % of control": 118, "Outcome": "inactive"}
{"Gene": "ESYT3 (GeneID 83850)", "reagent no.": 2, "total luciferase, z-score": -0.194, "total luciferase, % of control": 78, "Outcome": "inactive"}
{"Gene": "ESYT3 (GeneID 83850)", "reagent no.": 3, "total luciferase, z-score": -0.235, "total luciferase, % of control": 77.2, "Outcome": "inactive"}

Sorted by “total luciferase, z-score” (highest first): some entries from above.
{"Gene": "ESYT3 (GeneID 83850)", "reagent no.": 1, "total luciferase, z-score": 1.82, "total luciferase, % of control": 118, "Outcome": "inactive"}
{"Gene": "ESYT3 (GeneID 83850)", "reagent no.": 2, "total luciferase, z-score": -0.194, "total luciferase, % of control": 78, "Outcome": "inactive"}

The list goes on.
{"Gene": "SOS2 (GeneID 6655)", "reagent no.": 1, "total luciferase, z-score": 0.474, "total luciferase, % of control": 91.3, "Outcome": "inactive"}
{"Gene": "SOS2 (GeneID 6655)", "reagent no.": 2, "total luciferase, z-score": 0.385, "total luciferase, % of control": 89.5, "Outcome": "inactive"}
{"Gene": "SOS2 (GeneID 6655)", "reagent no.": 3, "total luciferase, z-score": 1.48, "total luciferase, % of control": 111, "Outcome": "inactive"}
{"Gene": "LIFR (GeneID 3977)", "reagent no.": 1, "total luciferase, z-score": -0.741, "total luciferase, % of control": 67.1, "Outcome": "inactive"}
{"Gene": "LIFR (GeneID 3977)", "reagent no.": 2, "total luciferase, z-score": -0.54, "total luciferase, % of control": 71.1, "Outcome": "inactive"}
{"Gene": "LIFR (GeneID 3977)", "reagent no.": 3, "total luciferase, z-score": -0.255, "total luciferase, % of control": 76.8, "Outcome": "inactive"}
